The supplement of paper PMC10735217
Structures can show the parent of a compound that is named as a salt. The list shows a part of the results. This data set is noisy: repeats of one test often differ as much as different tests do.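 The human kidney-derived cells carry a stably integrated construct of eight TEAD-binding elements driving luciferase, read by luminescence in a drug-repurposing library screen. A compound counts as a hit when its signal is more than five robust Z scores above the plate mean.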

Tested on: HEK293A TEAD-LUC reporter
Assay: TEAD-luciferase reporter activity (YAP activation), robust Z score vs plate; higher = stronger YAP/TEAD activation
Conditions: 24 h

SMILES	TEAD-luciferase reporter activity (compound concentration: 200 nM)	TEAD-luciferase reporter activity (compound concentration: 2 uM)	TEAD-luciferase reporter activity (compound concentration: 10 uM)
CCN(CC)CCOC1(c2ccccc2)CCN(CCNc2ccccc2)CC1	inactive: 0.709	inactive: -0.00155	inactive: -0.0738
CC(=O)c1cc(C(=O)NC2CC(C)(C)Cc3c2cnn3-c2cccc(F)c2)[nH]n1 (stereo unspecified)	inactive: 3.3	inactive: -1.67	inactive: 0.311
CCN(CC(=O)NC(CC(=O)O)C(=O)NC(CC1CCCCC1)C(=O)O)C(=O)CCCC1CCNCC1 (stereo unspecified)	inactive: -0.505	inactive: -1.2	inactive: -0.31
CC(=O)Oc1cccc(C(=O)O)c1OC(C)=O [Dipyrocetyl]	inactive: -0.32	inactive: -0.626	inactive: -0.295
CC(C)c1c(C(=O)Nc2ccccc2)c(-c2ccccc2)c(-c2ccc(F)cc2)n1CC[C@@H](O)C[C@@H](O)CC(=O)OCCCCO[N+](=O)[O-]	inactive: 0.979	inactive: -0.555	inactive: -0.184
C[C@@H](c1ccccn1)c1c(CCN(C)C)sc2ccccc12	inactive: -1.41	inactive: 2.58	active: 8.32
CCn1cc(C(=O)O)c(=O)c2cc(F)c(N3CCNCC3)cc21 [Norfloxacin]		inactive: -1.22	
CCn1cc(C(=O)O)c(=O)c2cc(F)c(N3CCNCC3)cc21	inactive: 0.237		inactive: 2.23
O=C(CCCO)NCCO [Etoxybamide]	inactive: -0.379	inactive: -0.328	inactive: 0.252
Cc1nc(-c2ccc(C(F)(F)F)cc2)sc1COc1ccc(C(N)=O)c(Cl)c1	inactive: -1.05	inactive: -0.281	inactive: -1.08
NC1CCN(c2ccc(-c3ccccc3Cl)nn2)CC1	inactive: -0.305	inactive: 1.62	inactive: -0.508
N#CCC(=O)N1CCC(c2nc(-c3cccs3)no2)CC1	inactive: 0.155	inactive: 0.225	inactive: 0.902
OC(Cn1cncn1)(Cn1cncn1)c1ccc(F)cc1F [fluconazole]		inactive: -0.99	
OC(Cn1cncn1)(Cn1cncn1)c1ccc(F)cc1F	inactive: -3.54		inactive: 0.167
Cc1cc(CCCCCCCOc2ccc(C3=NCCO3)cc2)on1	inactive: 1.77	inactive: 0.201	inactive: -0.147
Cc1ccc(-c2cccc(CN3CCCC3C(=O)NCc3ccc(C(F)(F)F)cc3)c2)cc1Cl (stereo unspecified)	inactive: 3.91		inactive: 1.88
CC(C)n1c(=O)n(C(=O)NC2C[C@H]3CC[C@@H](C2)N3C)c2ccccc21 (stereo partly specified)	inactive: 2.5	inactive: -0.425	inactive: -2.26
Cc1cc(N2CCCCC2)nn2cnnc12 [zindotrine]	inactive: 0.0263	inactive: -1.44	inactive: -1.47
Cc1nc(NC(=N)NS(=O)(=O)c2ccc(N)cc2)oc1C	inactive: -0.616	inactive: -0.42	inactive: 0.341
C[C@]12CCC(=O)C=C1C=C[C@@H]1[C@@H]2CC[C@@]2(C)[C@H]1CC[C@@]21CCC(=O)O1 [Canre]	inactive: 0.218	inactive: -0.155	inactive: -0.401
O=C(O)C[C@@H]1CC[C@H](NC(=O)Cc2cccs2)B(O)O1	inactive: -0.859	inactive: -1.93	inactive: 0.277
C1=C/COCc2cc(ccc2OCCN2CCCC2)Nc2nccc(n2)-c2cccc(c2)COC/1 [Pacritinib]	inactive: -1.27	inactive: -2.68	inactive: -1.69
C[C@@H](O)[C@H](N)C(=O)N[C@@H](CO)C(=O)N[C@@H](CCCCN)C(=O)N[C@@H](Cc1ccc(O)cc1)C(=O)N[C@@H](CCCNC(=N)N)C(=O)O	inactive: -0.316	inactive: 2.95	inactive: 0.0394
CC(C)(C)OC(=O)N[C@H]1CCCCCCCCC[C@@H](B(O)O)NC(=O)[C@@H]2C[C@@H](OC(=O)N3Cc4ccccc4C3)CN2C1=O	inactive: -0.478	inactive: -0.912	inactive: -0.497
CCC(Cc1ccccc1)c1cc(O)c(C(CC)c2ccccc2)c(=O)o1 (stereo unspecified)	inactive: -1.36	inactive: -0.474	inactive: -2.39
CNc1ccc([N+](=O)[O-])cc1C(=O)NCc1ccc(OC(F)F)c(OC)c1	inactive: 1.41	inactive: -0.575	inactive: -1.13
COc1cccc(N2CCN(C3=Nc4c(F)cccc4[C@H](CC(=O)O)N3c3cc(C(F)(F)F)ccc3OC)CC2)c1 [letermovir]	inactive: -0.989	inactive: -0.979	inactive: -0.507
Nc1nc(Cl)nc2c1ncn2[C@H]1C[C@H](O)[C@@H](CO)O1 [Cladribine]		inactive: -0.0306	

12 successive records from above, quoted:
SMILES	TEAD-luciferase reporter activity (compound concentration: 200 nM)	TEAD-luciferase reporter activity (compound concentration: 2 uM)	TEAD-luciferase reporter activity (compound concentration: 10 uM)
CC(C)c1c(C(=O)Nc2ccccc2)c(-c2ccccc2)c(-c2ccc(F)cc2)n1CC[C@@H](O)C[C@@H](O)CC(=O)OCCCCO[N+](=O)[O-]	inactive: 0.979	inactive: -0.555	inactive: -0.184
C[C@@H](c1ccccn1)c1c(CCN(C)C)sc2ccccc12	inactive: -1.41	inactive: 2.58	active: 8.32
CCn1cc(C(=O)O)c(=O)c2cc(F)c(N3CCNCC3)cc21 [Norfloxacin]		inactive: -1.22	
CCn1cc(C(=O)O)c(=O)c2cc(F)c(N3CCNCC3)cc21	inactive: 0.237		inactive: 2.23
O=C(CCCO)NCCO [Etoxybamide]	inactive: -0.379	inactive: -0.328	inactive: 0.252
Cc1nc(-c2ccc(C(F)(F)F)cc2)sc1COc1ccc(C(N)=O)c(Cl)c1	inactive: -1.05	inactive: -0.281	inactive: -1.08
NC1CCN(c2ccc(-c3ccccc3Cl)nn2)CC1	inactive: -0.305	inactive: 1.62	inactive: -0.508
N#CCC(=O)N1CCC(c2nc(-c3cccs3)no2)CC1	inactive: 0.155	inactive: 0.225	inactive: 0.902
OC(Cn1cncn1)(Cn1cncn1)c1ccc(F)cc1F [fluconazole]		inactive: -0.99	
OC(Cn1cncn1)(Cn1cncn1)c1ccc(F)cc1F	inactive: -3.54		inactive: 0.167
Cc1cc(CCCCCCCOc2ccc(C3=NCCO3)cc2)on1	inactive: 1.77	inactive: 0.201	inactive: -0.147
Cc1ccc(-c2cccc(CN3CCCC3C(=O)NCc3ccc(C(F)(F)F)cc3)c2)cc1Cl (stereo unspecified)	inactive: 3.91		inactive: 1.88

(further entries)

SMILES	TEAD-luciferase reporter activity (compound concentration: 200 nM)	TEAD-luciferase reporter activity (compound concentration: 2 uM)	TEAD-luciferase reporter activity (compound concentration: 10 uM)
Nc1nc(Cl)nc2c1ncn2[C@H]1C[C@H](O)[C@@H](CO)O1	inactive: -1.56		inactive: 2.53
Cn1c(C(=O)NC(=N)N)cc2c(C(F)(F)F)ccc(OS(=O)(=O)O)c21	inactive: -0.618	inactive: -0.623	inactive: 0.484
CCCC(=O)OCC(COC(=O)CCC)OC(=O)CCC [tributyrin]	inactive: 0.573		inactive: 2.48
CC(=O)OCCN1CCN(CCCN2c3ccccc3Sc3ccc(Cl)cc32)CC1	inactive: -0.523	inactive: -1.04	inactive: -0.25
CC(C)=CCOc1cc(NC(=O)c2ccoc2C)ccc1Cl	inactive: -1.11	inactive: -0.333	inactive: -1.29
CCC1=C(C)C2=N/C/1=C\c1[nH]c(c(c1C)C(=O)[O-])/C(=C/1\N=C(/C=c/3\[nH]/c(=C\2)/c(C=C)c3C)[C@H]([C@@H]1CCC(=O)[O-])C)/CC(=O)N[C@H](C(=O)[O-])CC(=O)[O-] [Talaporfin (sodium)]	inactive: 0.807		inactive: 0.109
COC(=O)C(C)c1ccc2oc(-c3ccc(F)cc3)nc2c1 (stereo unspecified)	inactive: -0.881	inactive: -2.16	inactive: -1.26
COc1ccc(-c2nc3cc(C4=NNC(=O)CC4C)ccc3[nH]2)cc1 (stereo unspecified) [pimobendan]	inactive: -1.08	inactive: 0.763	inactive: 1.99
CN(C)C(=O)CCCOC(=O)C(C)(C)Oc1ccc(Cl)cc1	inactive: -0.882		inactive: 0.476
OC1(CN2CCC(COc3noc4cccc(O[C@@H]5CCOC5)c34)CC2)CCOCC1	inactive: 2.15	inactive: -0.717	inactive: -0.471
C[C@](N)(Cc1c[nH]c2ccccc12)C(=O)O [alpha-Methyltryptophan]	inactive: -0.299	inactive: -1.14	inactive: 1.28
CC(C1=C(CCN(C)C)Cc2ccccc21)c1ccccn1 (stereo unspecified)	inactive: -2.1	inactive: -0.518	inactive: 2.21
CCSc1ccc2c(c1)N(CCCN1CCN(C)CC1)c1ccccc1S2 [Thiethylperazine dimalate]	inactive: 4.12	inactive: -1.12	inactive: -1.61
CCc1cc(-c2noc(-c3cc(OC)nc(C4CCCC4)c3)n2)cc(C)c1OC[C@@H](O)CO	inactive: -0.893	inactive: -0.279	inactive: 0.435
O=C(c1ccc(Cl)cc1)N1CCC(=Cc2ccc(C3=NCCO3)cc2)CC1	inactive: -3.82	inactive: -1.15	inactive: 1.86
N=C(N)NC(=O)c1ccc(N2CCN(C(=O)c3ccc[nH]3)CC2)c(C(F)(F)F)c1 [Sabiporide mesilate]	inactive: -1.07	inactive: -1.38	inactive: -0.342
C[C@](N)(CO)c1ncc(-c2ccc(OCc3ccc(-c4ccccc4)cc3)c(C(F)(F)F)c2)[nH]1	inactive: -1.57	inactive: 0.0368	inactive: -0.547
O=P1(O)OP(=O)(O)O[C@H]2[C@H](O1)[C@@H]1OP(=O)(O)OP(=O)(O)O[C@@H]1[C@H]1OP(=O)(O)OP(=O)(O)O[C@H]21	inactive: 0.211	inactive: -2.21	inactive: 0.576
CC1(C)CN(c2ncc(C(=O)Nc3cccc(C(F)(F)F)c3)c(N)n2)C(=O)N1 [Imanixil]	inactive: -0.762	inactive: -0.528	inactive: 0.147
O=C([C@@H]1CSCN1C(=O)CC1Cc2ccccc2C1)N1CCCC1	inactive: -0.943	inactive: -1.48	active: 5.49
CC(C)(C)c1cc(CC2SCNC2=O)cc(C(C)(C)C)c1O (stereo unspecified) [Tazofelone]	inactive: -0.655	inactive: -0.785	inactive: -0.666
COc1cc(NC(C)=O)ccc1OCCCN1CCN(c2ccccc2F)CC1 [Mafoprazine mesylate]	inactive: -0.697	inactive: -1.03	inactive: -1.77
CC1=C(/C=C/C(C)=C/C=C/C(C)=C/C=O)C(C)(C)CCC1 [Retinaldehyde]	inactive: -0.49	inactive: -0.55	inactive: -0.916
O=C([O-])[C@H]1/C(=C/CO)O[C@@H]2CC(=O)N21 [clavulanic acid, Rexahn]	inactive: -1.03		inactive: 2.84
CCS(=O)(=O)Nc1ncc(C(F)(F)F)cc1NC(=O)C1CCCCC1	inactive: -2.3	inactive: -1.22	inactive: -0.113
O=C(Nc1ccc(S(=O)(=O)N2CCOCC2)cc1)c1cc(Cl)ccc1NS(=O)(=O)c1ccc(Cl)s1 [ataciguat]	inactive: -2.53	inactive: -0.22	inactive: 1.97
O=C(NC(=O)c1ccccc1)NC1CCN(Cc2ccc3ccccc3c2)CC1	inactive: 0.278	inactive: 0.843	inactive: -1.49
